# Percent effect of library compounds

Source: ChEMBL document CHEMBL3988442, “University of Dundee, Small-Polar-MMV Screening Library” (2021).

Mtb cholesterol medium: 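Growth of Mycobacterium tuberculosis over 4 days (cholesterol / DPPC medium with tyloxapol); the read-out is not stated. Concentration: 50 µM. Higher reads as more growth inhibition (inferred: compounds with an IC50 in retests scored well above the rest). About 69,000 compounds were tested under these conditions; 0.54% (about 370) showed 50% or more at least once.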
Mtb glucose medium: 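Phenotypic screen: M. tuberculosis growth, glucose 7H9 medium, 3 days; the read-out is not stated. Tested at 50 µM. Direction is inferred from retests: higher values go with more growth inhibition. About 69,000 compounds were tested under these conditions; 1.1% (about 760) showed 50% or more at least once.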

Values are the deposited “Percent Effect”, in %.
The controls that fix the scale are not given in the record; negative values are as filed.
This is an unselected part of the compounds tested.
Two or more numbers in one place are separate tests of the same structure; such repeats can differ widely.

structure | Mtb cholesterol medium | Mtb glucose medium
Cc1cccc(NC(=O)N2CCOCC(CN(C)C)C2)c1C (centres unmarked) | 5.043% | -12.92% and -9.534%
CCN(Cc1ccncc1)C(=O)c1cc(C)c(C)c(S(N)(=O)=O)c1 | 12.5% | 20.66%
CS(=O)(=O)c1ccc(O[C@H]2COCCN(C(=O)c3ccno3)C2)cc1 | -8.068% | -4.294% and -2.733%
COCC(=O)Nc1ccc(-c2noc([C@@H]3CCCN3C)n2)cn1 | 7.716% | -3.198% and -22.87%
Cc1noc(C)c1CN1CCC2(CCN(Cc3cccc(F)c3)CC2)C1.O=C(O)C(F)(F)F.O=C(O)C(F)(F)F | -14.31% | -13.08%
CCS(=O)(=O)c1ccc2c(c1)OCCCO2 | -0.3374% | -16.16%
Cc1cnc(N)c(C(=O)C2CCN(C(=O)c3ccccc3F)CC2)c1 | -6.478% | 15.42%
Cc1nccn1C1CCCN(C(=O)CCCNc2ncccn2)C1 (centres unmarked) | -2.016% | 6.584%
CCOCCn1c(=O)[nH]c2cc(C(=O)N(C)Cc3nc(C)c[nH]3)ccc21 | -22.06% | 1.961%
O=C1CN(CC[C@@H](O)c2ccccc2)CCN1c1ccccc1Cl | -16.92% | -0.5421%
CC(=O)N1CCOCC2(CN(Cc3ccccn3)CCO2)C1.O=C(O)C(F)(F)F.O=C(O)C(F)(F)F (centres unmarked) | 16.1% | 23.15%
CC(C)Nc1ncnc2c1CCN(Cc1ccoc1)CC2 | -5.363% and -2.023% | -4.379%
CC(C)c1cc(NC(=O)CN2CCc3cncnc3C2)on1 | -7.239% | -0.9346%
Cc1nc(N(C)C)nc(C)c1NC(=O)c1ccco1 | 5.477% | 14.49% and 1.454%
CCN(Cc1nccn1C)C1CCN(c2ccccc2)C1=O (centres unmarked) | -4.143% | 9.066%
[H][C@@]12OCCN(S(=O)(=O)C3CC3)[C@@]1([H])CC[C@H]2OCC | -0.6987% | -4.227%
CCCN1CCN(C(=O)c2ccc(Cn3cc(Br)cn3)cc2)CC1 | 11.5% | 21.02%
Cc1nc(CN2CCCN(C(=O)c3c(C)oc(C)c3C)CC2)cs1 | 1.275% | -3.708%
[H][C@@]12CS(=O)(=O)C[C@]1([H])N(Cc1ccsc1)CCN2C(=O)C1CCC1 | -22.17% | -30.41%
CC(C)(O)CN1CCN(C(=O)c2cccc(CC#N)c2)CC1 | 0.3435% | -10.25%
Cc1ccc2cc(C3(O)CCN(C(=O)CN4CCCC4)CC3)ccc2n1 | -0.752% | -16.67% and -0.8656%
CCN(c1ccc(C(=O)Nc2c(C)nn(C(C)C)c2C)cc1)C(C)C | 6.784% and -6.97% | 13%
O=C1CN(C(=O)c2cc3c(F)cc(Br)cc3[nH]2)CCN1 | -12.13% | -19.34%
Cc1nnsc1C(=O)N1CCCC(n2nnc3cc(F)ccc32)C1 (centres unmarked) | -14.26% | 17.59%
Cn1c(CN2CCCCC2)nnc1C1CCCN(C(=O)CCC(N)=O)C1 (centres unmarked) | -11.56% | -10.13%
[H][C@@]12CNC[C@]1([H])CN(C(=O)C1CCCC1)C2 | -3.631% | -16.99%
CN(Cc1cc(C(C)(C)C)n[nH]1)C(=O)c1cn2ccsc2n1 | -4.793% | 20.07%
CCc1cc(C(=O)N2CC[C@@H](c3ccc4ccccc4c3)[C@H](O)C2)[nH]n1 | 18.99% | 24.88%
[H][C@@]12CS(=O)(=O)C[C@]1([H])N(Cc1cccc(OCC(N)=O)c1)CCN2CCC | -3.493% | -23.74%
CC(C)Cc1cc(C(=O)N2CC(OCc3ccccc3F)C2)n(C)n1 | 14.94% | 32.05%
O=C(Nc1ccccc1)[C@H]1O[C@H](CCN2CCNCC2)CC[C@@H]1O | -18.04% | -2.536% and 21.84%
COc1ccc(OC2CCN(C(=O)C(C)Cn3cccn3)CC2)cc1 (centres unmarked) | -1.471% and -9.404% | -2.071% and 6.525%
Cn1cc(CN2CCS(=O)(=O)C(C)(C)C2)cn1 | -21.41% | -2.178%
COc1ccc(S(=O)(=O)C2CCN(C(=O)c3cc(C)cs3)CC2)cc1 | -0.1027% | 33.2%
Cn1ccc(NC(=O)CN2CCN(C3CCCC3)C(=O)C2)n1 | 10.43% and -14.3% | 7.092%
COc1c(CNCc2cnn(C)c2)c(C(C)C)nn1C | 2.25% | 29.76%
CCCC(=O)NC1CCCN(Cc2cccs2)C1 (centres unmarked) | 23.16% | 28.54%
Cc1ccccc1SC1CCN(C(=O)CCCS(N)(=O)=O)CC1 | 11.66% | 4.406%
Cc1cc(CN2CCN(CC(=O)NC3(C#N)CCCCC3)CC2)on1 | -7.812% | -14.1%
CN(C)S(=O)(=O)c1ccc(CN2CCCC2CO)o1 (centres unmarked) | 0.7247% | 9.481%
Cc1ccsc1C(=O)N1CCCC(c2[nH]ncc2S(C)(=O)=O)C1 (centres unmarked) | -4.14% | 0.9341%
CCCn1[nH]cc/c1=N\C(=O)CN1CCCC1Cn1cccn1 (centres unmarked) | 31.74% | 3.239%
Cc1nn(C)c(C)c1C1CCCN1Cc1nc(-c2ccco2)no1 (centres unmarked) | -4.103% | 20.8%
COC[C@H]1CCCN1c1nccc(-c2cnn(-c3ccccc3C)c2)n1 | 48.86% | 57.19% and 50.56%
Cc1ccsc1CN(CCCO)Cc1nc2ccccc2[nH]1 | 2.106% | 5.471%
CC1(C)CN(C(=O)Nc2cc(C(F)(F)F)c[nH]c2=O)CCO1 | 9.215% and -6.841% | 23.15%
CN1CCOC(C(=O)Nc2ccc3c(c2)nc(C(C)(C)C)n3C)C1 (centres unmarked) | 4.324% | 16.77%
COCC1CN(S(C)(=O)=O)Cc2ncn(CC3CC3)c21 (centres unmarked) | -12.04% | 5.17%
CC1COCCN1Cc1nc(C(C)(C)C)no1 (centres unmarked) | 8.083% | 28.02%
Cc1ncoc1C(=O)N1CCOC(CC2CCCCC2)C1 (centres unmarked) | -11.17% | -3.701% and -9.819%
O=C(CCCn1cncn1)N1CCCC1c1noc(C2CC2)n1 (centres unmarked) | -4.484% | -24.2%
Cn1ccc(C(=O)N2CCC(Cc3cccc4ncccc34)C2)n1 (centres unmarked) | -19.61% | -17.4%
Cc1nc(CSCc2ccc(OCC(F)(F)F)nc2)no1 | 4.15% | 24.89%
[H][C@@]12OCCN(C(=O)c3occc3C)[C@@]1([H])CC[C@H]2OCC1CCOCC1 | 10.06% | 23.88%
O=C(O)C(F)(F)F.O=C1COC2(CCN(Cc3nccs3)CC2)CN1c1ccccc1 | 12.46% | 8.213%
CC(C)c1cc(C(=O)NCC2CCCN(c3ncccn3)C2)n(C)n1 (centres unmarked) | 3.624% | 1.168%
Cn1nc(CN2CCCC2)c2c1CN(C(=O)c1cccnc1)CC2.O=C(O)C(F)(F)F.O=C(O)C(F)(F)F | -2.519% | 40.03% and 0.5996%
CC(NC(=O)CCn1cccn1)c1cn(-c2ccccc2)nn1 (centres unmarked) | 12.87% | 5.237%
Cc1cn(CC(=O)Nc2cc(C(C)(C)C)nn2C)cn1 | -12.83% | -19.9%
CN(Cc1cc(C2CC2)[nH]n1)C(=O)c1cnn2ccn(C)c12 | -10.62% | 14.33%
O=C(c1cc(COc2ccc3c(c2)OCO3)[nH]n1)N1CC=CC1CO (centres unmarked) | -15.68% | 1.692%
O=C(O)C(F)(F)F.[H][C@@]12CN(Cc3ccccn3)C[C@]1([H])CN(C(=O)Cc1ccc(OC)cc1)C2 | -8.1% | -2.918%
Cc1sc2nc(CCN)nc(N(CCN(C)C)CC3CCCO3)c2c1C (centres unmarked) | -1.765% | 3.138%
Cl.Cn1cc([C@@H]2CN(S(=O)(=O)c3ccccc3F)C[C@H]2N)c2ccncc21 | -14.48% and -1.498% | -14.02%
O=C(NC1CCN(c2cccc(C(F)(F)F)n2)CC1)C1CC1 | -31.66% | -9.359%
Cn1nc(C(=O)NC2CC2)cc1NC(=O)C1CC1 | 9.591% | 14.29%
CCN(Cc1cnc(-c2ccccn2)nc1)C1CCS(=O)(=O)C1 (centres unmarked) | -8.85% | 16.44%
Cc1ccc(-c2ccnc(NC(c3ncccc3C)C3CC3)n2)c(C)n1 (centres unmarked) | -1.855% | 22.69%
Cn1nc2c(cc1=O)CN(CC(=O)Nc1ccc(Cl)cn1)CC2 | -5.551% | -12.04% and -11.54%
Cc1cccc(OCCC(=O)NCC2CN(C)CCO2)c1C (centres unmarked) | -8.392% | -1.948%
CC1(C)Oc2ccc(S(=O)(=O)NCCCn3ccnc3)cc2NC1=O | -18.78% | 0.5705%

Once more, the final 5:

{"structure": "CCN(Cc1cnc(-c2ccccn2)nc1)C1CCS(=O)(=O)C1", "stereo": "centres unmarked", "Mtb cholesterol medium": -8.85, "Mtb glucose medium": 16.44}
{"structure": "Cc1ccc(-c2ccnc(NC(c3ncccc3C)C3CC3)n2)c(C)n1", "stereo": "centres unmarked", "Mtb cholesterol medium": -1.855, "Mtb glucose medium": 22.69}
{"structure": "Cn1nc2c(cc1=O)CN(CC(=O)Nc1ccc(Cl)cn1)CC2", "Mtb cholesterol medium": -5.551, "Mtb glucose medium": "-12.04 and -11.54"}
{"structure": "Cc1cccc(OCCC(=O)NCC2CN(C)CCO2)c1C", "stereo": "centres unmarked", "Mtb cholesterol medium": -8.392, "Mtb glucose medium": -1.948}
{"structure": "CC1(C)Oc2ccc(S(=O)(=O)NCCCn3ccnc3)cc2NC1=O", "Mtb cholesterol medium": -18.78, "Mtb glucose medium": 0.5705}